This note sets out measurements from paper doi:10.1101/2021.02.05.429932.

Chains of the proteins cited; added tags and fusions are not shown. Lines headed by an entry give the natural chain unless they say otherwise; changes in a name come on top.
UniProt Q7KRX3: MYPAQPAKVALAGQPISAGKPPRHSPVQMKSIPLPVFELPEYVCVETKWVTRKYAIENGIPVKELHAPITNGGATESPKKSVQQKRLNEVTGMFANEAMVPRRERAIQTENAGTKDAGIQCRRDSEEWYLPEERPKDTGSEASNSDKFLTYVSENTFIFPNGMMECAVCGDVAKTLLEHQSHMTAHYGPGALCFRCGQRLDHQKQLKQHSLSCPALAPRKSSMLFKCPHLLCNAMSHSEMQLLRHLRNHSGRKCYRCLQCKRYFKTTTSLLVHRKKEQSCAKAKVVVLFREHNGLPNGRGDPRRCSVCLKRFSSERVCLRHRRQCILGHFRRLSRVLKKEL
UniProt P05205: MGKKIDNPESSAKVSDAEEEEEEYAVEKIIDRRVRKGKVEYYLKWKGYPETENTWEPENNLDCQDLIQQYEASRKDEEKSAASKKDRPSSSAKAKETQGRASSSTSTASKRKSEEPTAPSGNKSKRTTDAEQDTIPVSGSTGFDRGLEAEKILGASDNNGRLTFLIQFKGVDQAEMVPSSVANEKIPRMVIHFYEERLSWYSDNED
UniProt Q9VKI2: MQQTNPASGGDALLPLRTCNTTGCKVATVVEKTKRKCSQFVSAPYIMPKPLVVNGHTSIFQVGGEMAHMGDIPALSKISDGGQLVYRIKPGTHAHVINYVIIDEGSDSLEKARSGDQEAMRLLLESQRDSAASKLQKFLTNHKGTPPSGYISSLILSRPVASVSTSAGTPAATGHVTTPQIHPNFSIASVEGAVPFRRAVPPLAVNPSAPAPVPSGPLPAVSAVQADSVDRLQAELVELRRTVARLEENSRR
UniProt Q9VAC4: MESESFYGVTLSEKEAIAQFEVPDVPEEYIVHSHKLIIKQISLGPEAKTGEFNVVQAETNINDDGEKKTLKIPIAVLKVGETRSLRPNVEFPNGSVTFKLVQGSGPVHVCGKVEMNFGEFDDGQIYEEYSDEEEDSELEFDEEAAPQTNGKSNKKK

Like-named read-outs stand apart in the source and are kept apart here. No constants are given. Whether binding was seen depends on the method and setting. In cells and extracts the contact can be indirect. Here binding means that the protein was enriched with, or labelled near, the bait; the list need not be complete.

What all share (test): affinity purification with mass spectrometry
Assay [1] addresses FLAG-HA-BOH1 (D. melanogaster) (UniProt Q7KRX3).
For assay [2], the target named is heterochromatin protein 1a (HP1a) (D. melanogaster (endogenous in SL2)) (UniProt P05205).
The target in assay [3] is T1, nucleoplasmin (NLP) (D. melanogaster (endogenous in SL2)) (UniProt Q27415).
T1 sequence: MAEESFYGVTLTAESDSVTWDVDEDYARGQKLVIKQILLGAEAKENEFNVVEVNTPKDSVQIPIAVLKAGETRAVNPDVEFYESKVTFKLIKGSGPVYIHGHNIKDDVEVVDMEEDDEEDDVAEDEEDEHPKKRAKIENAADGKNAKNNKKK

Assay [4] concerns the target FLAG-HA-BOH2 (D. melanogaster) (UniProt Q9VKI2).
The target of assay [5] is FLAG-HA-Hmr^+ (D. melanogaster).
Assay [6] concerns the target FLAG-HA-BOH1 (D. melanogaster) (UniProt Q7KRX3). This is another data set of the same source.
Assay [7] deals with FLAG-HA-BOH2 (D. melanogaster) (UniProt Q9VKI2). The source holds these as a separate data set.
Assay [8] addresses Hybrid male rescue (HMR) (D. melanogaster (endogenous in SL2)).
Assay [9] has as its target Lethal hybrid rescue (LHR) (D. melanogaster (endogenous in SL2)).
Assay [10] addresses endogenously FLAG tagged HMR (D. melanogaster (endogenous in SL2)).
Assay [11] has as its target heterochromatin protein 1a (HP1a) (D. melanogaster (endogenous in SL2)) (UniProt P05205). The source holds these as a separate data set.

In the case of “Buddy Of Hmr 2 (BOH2) (from UniProt Q9VKI2)”, the binding result in assay [1], in assay [2] and in assay [3] was “binds” throughout.

On to “Buddy Of Hmr 1 (BOH1) (from UniProt Q7KRX3)”, for which the binding result in [4], in assay [2] and in [3] was “binds” in each case.

Take “nucleophosmin (NPH) (from UniProt Q9VAC4)”: the binding result in assay [1], in assay [4], in assay [2] and in assay [3] was “binds” in each case.

“Hybrid male rescue (HMR) (D. melanogaster (endogenous in SL2))”: the binding result in assay [3] was “binds”.

Take “Lethal hybrid rescue (LHR) (D. melanogaster (endogenous in SL2))”: the binding result in assay [3] is “binds”.

B1: SU(HW) (protein, UniProt P08970 1-941)
chain: MSASKEGKEKKGKLLGVENISPPKDKRPATRMKLLNDVGAGEDSEASTTTTTSRTPSNKQEKRGSVAGSRIKILNEEILGTPKTEKRGATKSTAPAASTVKILNEKKTPSATVTAVETTKIKTSPSKRKKMEHYVLQAVKSENTKADTTVTVVTEEDDTIDFILADDEEVVPGRIENNNGQEIVVTEDDEDLGEDGDEDGEDSSGKGNSSQTKIKEIVEHVCGKCYKTFRRVQSLKKHLEFCRYDSGYHLRKADMLKNLEKIEKDAVVMEKKDICFCCSESYDTFHLGHINCPDCPKSFKTQTSYERHIFITHSEFSDFPCSICNANLRSEALLALHEEQHKSRGKPYACKICGKDFTRSYHLKRHQKYSSCSSNETDTMSCKVCDRVFYRLDNLRSHLKQHLGTQVVKKPEYMCHTCKNCFYSLSTLNIHIRTHTGEKPFDCDLCDKKFSALVALKKHRRYHTGEKPYSCTVCNQAFAVKEVLNRHMKRHTGERPHKCDECGKSFIQATQLRTHSKTHIRPFPCEQCDEKFKTEKQLERHVKTHSRTKRPVFSCAECKRNFRTPALLKEHMDEGKHSPKQQRSSMRSAVKIMERTDCAICDKNFDSSDTLRRHIRTVHECDPDDIFGVEPHPSKRAKKDIESEEVVPVALNTSAGSLISSQTDGNGVVVREFLVDEGDGAAQTITLENETYTILPLDGAIEGEQLTDEAGVKPEAKKEEAQVSPVVKKEQRKSLAASLAAAIADNLEESCSEDDFSGEILTEEDIKLKENVGKLIDMLVDPPILKKYGWPNAPEETVLCKVIENCGHDLTKGGENYAELDYGSRMREYCKLLFTVVIHNDSIKSLLNNFPIDDVIEYVLGDEDQDEGGLDKDNESHSGDEEAVSVTGETKTNEIREKPEKKEVSAKSEKKEIVGKAVDKDNSEEVVRENKKKPVGEQEKA
Consider B1, for which the binding result in [5] was “binds”.

B2: SU(VAR)3-7 (protein, UniProt P20193 1-1250)
chain: MDRDSSMQAKNLDAQCNPDLKMASANSETLASATHELKIMDVEGGALVDPDHIEEVETSMVIVVDDDDGDVAMVVEEDKHPMRDDPCIEDIMDDEHAPLVAELQSALNNPDDKQASEDPLLEDQEREPDAMSTKTEPSSDAESSHSYHDPMGLLERIEIHDPGDSQDDDDEDDESSNGGGVDGGMRRKMPRAQRWLLWMKRWPWILHEDSDGTLAFCLYCNISINVNNRSRHIQQHNVSLSHQERECNYLAFKKSEEETRGAISDNEIKHEFGTKSYVAAMKQKRISETEAFNNFNWLRWLRWHPWLERSMPTGTIGTCRICSVRMNVEFVYLRKRHETTKGHMEALRNLDSDKRSRKRKRSKSNSVTNSGGDEAEREKESEPEVGPEDAQDTPVVMMNGDVDSGDDPGKWCALIPDTNPQQCRCTLCNCTMAITSFLRHCKTRAHCHMLSTPAEKGSSDIRGIWAVFADMHPWLIADPEDPSIGYCSVCRKRFMYGNSEIKRKNHEKSEKHTLALASAKAGIEVGSADGRGGDNMDEEEAAASDQAQSSQTDDSEDNDDDNWSEIQKLGKGFAHKSSSEPRKATVRAGVRFYPWLCYSKDRKTQICKFCRVRFHNEAAKARHELSARHVKLVKQFKMRQAKLHQGTNTQTKHNAQDDEESQEQDEEYGEEEEDAEEDSQSNFDLGTVQARKTARADNKLFVKPIPATMKGKVMVWKGRFPWLSYKKNEQRGNYAWCKLCEVSLYLPSSKWASKHQRTSRHIRLRIDRKRNGGNPLKTSNKNSGEISTVVATASALASAEARQKAAMAELQAKYDWLDPDANDENHCHCRVCDSRLPIKVFYLRQHDASRKHVENKERQRANAAAAANAPSVSPTSTVDAERQESGMDKESENDMSVRSDGSTAEPLAKRSRRSMEVRRIIRALRDSMGKRQEERSQMDMARDMICSSFDIVTRLRTLERESVAHNESMAQAPPSVTVSPIKPPEPRHVMDLFFDSISPTMKSLPPDLAAEGKSKIMQLVCSLELRAMQRNATTPTPATVSASSKWPSSTTVTPVKTPPAPISAPLASVDADLHSSVVTTPHEYNNGQNNNNDKETVPKEPVTGASSAQVTINGSAKDLPENIRRILTSNQTQVTNRLETDSVRCVPLDKLTTQSRTNVNGRLSQGGTSEAPSTPQADLSNGNTLAMIRQIRVNNNNSSKITVTNTPQMQQPQQAQASITSSTPIMRGGPSSNGCQITTFRTMVNHNRRP
On to B2, for which, in assay [5], the binding entry is on record as “binds”.

B3: nucleoplasmin (NLP) (protein, UniProt Q27415 1-152)
chain: T1 sequence
As to B3, the binding result in assay [6], in assay [7], in [5], in assay [8], in assay [9] and in assay [10] was “binds” each time. Also, the binding entry in assay [11] was “binds”.
